PubChem BioAssay AID1259327 | Drosophila RNAi Screening Center – 2017
Assay: 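Knock-downs altering cellular ATP with no metal added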. Cells: Drosophila S2R+ cells. Knock-down reagent: long dsRNA against Drosophila genes. Duration: 5 days (water added on day 4, read one day later). Challenge: water added as vehicle, no metal, one day before read-out. Detection: 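Total ATP measured by luciferase light, scaled to plate mean, duplicates averaged, then z-scored across plates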. Direction: ATP z-score: higher = more total ATP than typical wells; ATP luminescence: higher = more total ATP. Call rule: 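a hit is any knock-down whose absolute ATP z-score is greater than 1.5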. Meaning of the calls: active = hit: ATP up or down; inactive = no clear ATP change.
Shown is an unselected part of about 3,100 reagents. Of all reagents, 378 (12%) got an active call. 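Hits include both directions; z-score sign shows ATP rise or fall; raw luminescence values are not plate-normalised.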 Entries without a mark were called inactive. Reagents against one gene are numbered here. Not given: the amount of reagent.

Gr59c: ATP z-score, duplicate mean = -0.164; ATP luminescence, replicate 1 (RLU) = 7.34e5; ATP luminescence, replicate 2 (RLU) = 6.85e5
Or35a #1: ATP z-score, duplicate mean = -0.33; ATP luminescence, replicate 1 (RLU) = 7.18e5; ATP luminescence, replicate 2 (RLU) = 6.65e5
Or35a #2: ATP z-score, duplicate mean = -0.171; ATP luminescence, replicate 1 (RLU) = 5.25e5; ATP luminescence, replicate 2 (RLU) = 3.63e5
Ret #1: ATP z-score, duplicate mean = 0.453; ATP luminescence, replicate 1 (RLU) = 8.20e5; ATP luminescence, replicate 2 (RLU) = 7.38e5
Ret #2: ATP z-score, duplicate mean = 0.558; ATP luminescence, replicate 1 (RLU) = 7.54e5; ATP luminescence, replicate 2 (RLU) = 8.16e5
Ret #3: ATP z-score, duplicate mean = 0.592; ATP luminescence, replicate 1 (RLU) = 6.10e5; ATP luminescence, replicate 2 (RLU) = 6.50e5
CG5421 #1: ATP z-score, duplicate mean = 0.492; ATP luminescence, replicate 1 (RLU) = 7.96e5; ATP luminescence, replicate 2 (RLU) = 7.61e5
CG5421 #2: ATP z-score, duplicate mean = 0.592; ATP luminescence, replicate 1 (RLU) = 1.05e6; ATP luminescence, replicate 2 (RLU) = 7.98e5
aralar1 #1: ATP z-score, duplicate mean = -0.981; ATP luminescence, replicate 1 (RLU) = 6.04e5; ATP luminescence, replicate 2 (RLU) = 6.05e5
aralar1 #2: ATP z-score, duplicate mean = -0.0919; ATP luminescence, replicate 1 (RLU) = 1.02e6; ATP luminescence, replicate 2 (RLU) = 6.21e5
Or65b #1: ATP z-score, duplicate mean = -0.252; ATP luminescence, replicate 1 (RLU) = 6.75e5; ATP luminescence, replicate 2 (RLU) = 7.58e5
Or65b #2: ATP z-score, duplicate mean = 1.85 (active); ATP luminescence, replicate 1 (RLU) = 5.83e5; ATP luminescence, replicate 2 (RLU) = 5.99e5

3 entries from above, reduced to “ATP z-score, duplicate mean”:
CG5421 #1 = 0.492
CG5421 #2 = 0.592
aralar1 #1 = -0.981

Further results follow.
CG33012 #1: ATP z-score, duplicate mean = -1.69 (active); ATP luminescence, replicate 1 (RLU) = 4.48e5; ATP luminescence, replicate 2 (RLU) = 4.86e5
CG33012 #2: ATP z-score, duplicate mean = 0.312; ATP luminescence, replicate 1 (RLU) = 7.18e5; ATP luminescence, replicate 2 (RLU) = 8.38e5
NaPi-III #1: ATP z-score, duplicate mean = -0.707; ATP luminescence, replicate 1 (RLU) = 6.66e5; ATP luminescence, replicate 2 (RLU) = 6.45e5
NaPi-III #2: ATP z-score, duplicate mean = 0.372; ATP luminescence, replicate 1 (RLU) = 9.01e5; ATP luminescence, replicate 2 (RLU) = 8.36e5
smo #1: ATP z-score, duplicate mean = -0.347; ATP luminescence, replicate 1 (RLU) = 4.01e5; ATP luminescence, replicate 2 (RLU) = 5.12e5
smo #2: ATP z-score, duplicate mean = -0.232; ATP luminescence, replicate 1 (RLU) = 8.26e5; ATP luminescence, replicate 2 (RLU) = 7.67e5
Gr22e: ATP z-score, duplicate mean = 0.292; ATP luminescence, replicate 1 (RLU) = 8.05e5; ATP luminescence, replicate 2 (RLU) = 7.10e5
CG33234 #1: ATP z-score, duplicate mean = -1.21; ATP luminescence, replicate 1 (RLU) = 5.97e5; ATP luminescence, replicate 2 (RLU) = 6.26e5
CG33234 #2: ATP z-score, duplicate mean = -0.66; ATP luminescence, replicate 1 (RLU) = 3.62e5; ATP luminescence, replicate 2 (RLU) = 4.81e5
Gat #1: ATP z-score, duplicate mean = -0.72; ATP luminescence, replicate 1 (RLU) = 5.17e5; ATP luminescence, replicate 2 (RLU) = 7.61e5
Gat #2: ATP z-score, duplicate mean = -0.951; ATP luminescence, replicate 1 (RLU) = 3.90e5; ATP luminescence, replicate 2 (RLU) = 3.90e5
PIG-Wa: ATP z-score, duplicate mean = -0.355; ATP luminescence, replicate 1 (RLU) = 7.02e5; ATP luminescence, replicate 2 (RLU) = 6.37e5
